This is one part of the list. Repeats are few or missing, and single values can be far off.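 The apoptosis fraction was the count of cleaved-PARP antibody-stained nuclei relative to all DNA-stained nuclei, imaged in 1,536-well plates. Screening doses were set so most cells survived, and baseline and induced cleaved-PARP levels vary greatly across cell lines.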

This experiment relates to RPMI7951. The experiment can be described thus: cleaved PARP positive nuclei fraction relative to DMSO control; melanoma cells; higher = more apoptosis. Conditions: library dose: low library concentration; 72 h.
Consider `O=c1[nH]nc(Sc2ncc([N+](=O)[O-])s2)n1-c1ccc2c(c1)OCCO2` + COc1ccc(COc2ccc(Cc3cnc(N)nc3N)cc2OC)cc1 [GW2580] (first compound 0.2 µM, partner dose 1 µM), for which the “cleaved PARP positive nuclei fraction” value stood at 51.9%.

With `COc1cc([C@@H]2c3cc4c(cc3[C@@H](O[C@@H]3O[C@@H]5CO[C@@H](C)O[C@H]5[C@H](O)[C@H]3O)[C@H]3COC(=O)[C@H]23)OCO4)cc(OC)c1O` [etoposide] + O=S(=O)(c1ccccc1)N(CC(F)(F)F)c1ccc(C(O)(C(F)(F)F)C(F)(F)F)cc1 [T0901317] (first compound 0.02 µM, partner dose 1.4 µM), the “cleaved PARP positive nuclei fraction” value worked out at 131%. In the case of `O=c1[nH]nc(Sc2ncc([N+](=O)[O-])s2)n1-c1ccc2c(c1)OCCO2` + O=S(=O)(c1ccccc1)N(CC(F)(F)F)c1ccc(C(O)(C(F)(F)F)C(F)(F)F)cc1 [T0901317] (first compound 0.2 µM, partner dose 1.4 µM), the “cleaved PARP positive nuclei fraction” value stood at 68.5%.

On to `Cc1cc(Nc2cc(N3CCN(C)CC3)nc(Sc3ccc(NC(=O)C4CC4)cc3)n2)n[nH]1` [Tozasertib] + Cn1cncc1[C@@](N)(c1ccc(Cl)cc1)c1ccc2c(c1)c(-c1cccc(Cl)c1)cc(=O)n2C [tipifarnib] (first compound 0.006 µM, partner dose 0.01 µM), for which the “cleaved PARP positive nuclei fraction” value came out at 218%. For `CC[C@]1(O)C[C@H]2CN(CCc3c([nH]c4ccccc34)[C@@](C(=O)OC)(c3cc4c(cc3OC)N(C=O)[C@H]3[C@@](O)(C(=O)OC)[C@H](OC(C)=O)[C@]5(CC)C=CCN6CC[C@]43[C@@H]65)C2)C1` [vincristine] + c1cc(-c2cnn3cc(-c4ccc(OCCN5CCCCC5)cc4)cnc23)ccn1 [Dorsomorphin] (first compound 0.0001 µM, partner dose 0.4 µM), the “cleaved PARP positive nuclei fraction” value is 184%. In the case of `Cc1ccc(Nc2nccc(N(C)c3ccc4c(C)n(C)nc4c3)n2)cc1S(N)(=O)=O` [Pazopanib] + CN(NC(=O)CC(=O)NN(C)C(=S)c1ccccc1)C(=S)c1ccccc1 [STA4783] (first compound 0.4 µM, partner dose 0.006 µM), the “cleaved PARP positive nuclei fraction” value came out at 108%.

With `Cc1cn(-c2cc(NC(=O)c3ccc(C)c(Nc4nccc(-c5cccnc5)n4)c3)cc(C(F)(F)F)c2)cn1` [nilotinib] + COc1ccc(COc2ccc(Cc3cnc(N)nc3N)cc2OC)cc1 [GW2580] (first compound 0.2 µM, partner dose 1 µM), the “cleaved PARP positive nuclei fraction” value turned out to be 34.7%. For `COc1cc([C@@H]2c3cc4c(cc3[C@@H](O[C@@H]3O[C@@H]5CO[C@@H](C)O[C@H]5[C@H](O)[C@H]3O)[C@H]3COC(=O)[C@H]23)OCO4)cc(OC)c1O` [etoposide] + C[C@@H]1CCN(C(=O)CC#N)C[C@@H]1N(C)c1ncnc2[nH]ccc12 [CP690550] (first compound 0.02 µM, partner dose 1 µM), the “cleaved PARP positive nuclei fraction” value came to 118%. Take `Cc1cn(-c2cc(NC(=O)c3ccc(C)c(Nc4nccc(-c5cccnc5)n4)c3)cc(C(F)(F)F)c2)cn1` [nilotinib] + Cn1cc(/C=C2\C(=O)Nc3cccnc32)c2ccccc21 [GW441756] (first compound 0.2 µM, partner dose 0.4 µM): the “cleaved PARP positive nuclei fraction” value is 26.8%.

In the case of `Cc1cn(-c2cc(NC(=O)c3ccc(C)c(Nc4nccc(-c5cccnc5)n4)c3)cc(C(F)(F)F)c2)cn1` [nilotinib] + O=c1cc(-c2cccc3c2Sc2ccccc2S3)oc(N2CCOCC2)c1 [KU55933] (first compound 0.2 µM, partner dose 1 µM), the “cleaved PARP positive nuclei fraction” value came to 166%.

As to `CC[C@]1(O)C[C@H]2CN(CCc3c([nH]c4ccccc34)[C@@](C(=O)OC)(c3cc4c(cc3OC)N(C=O)[C@H]3[C@@](O)(C(=O)OC)[C@H](OC(C)=O)[C@]5(CC)C=CCN6CC[C@]43[C@@H]65)C2)C1` [vincristine] + NC(=O)Nc1cc(-c2cccc(F)c2)sc1C(=O)N[C@H]1CCCNC1 [AZD7762] (first compound 0.0001 µM, partner dose 0.02 µM), the “cleaved PARP positive nuclei fraction” value stood at 124%.

Take `CCCCCCCCCCCCCCCCCCOP(=O)([O-])OC1CC[N+](C)(C)CC1` [Perifosine] + COc1ccc2c(c1)CCC1C2CCC2(C)C(NCCCCCCN3C(=O)C=CC3=O)CCC12 [U73122] (first compound 0.4 µM, partner dose 0.4 µM): the “cleaved PARP positive nuclei fraction” value is 399%.

These data come from the supplement of paper PMC4604168 (melanoma cell lines).
